PubChem BioAssay AID720505 – Drosophila RNAi Screening Center, 2013

Test: 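Fly regulators or components of the CRAC channel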 (primary screen)
Cells: Drosophila S2R+ cells
Reagent: long dsRNA against Drosophila genes
Challenge: thapsigargin (2 µM) in calcium-free buffer to empty internal stores, then 2 mM calcium added back
Measurement: 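Fluo-4 signal in 384-well plates read on a FLIPR after thapsigargin (2 µM, calcium-free) store depletion and 2 mM calcium add-back; unnormalised mean endpoint per well; screen run twice, selected wells retested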
Reading the numbers: calcium signal and retest calcium signal: higher = more calcium entry after store depletion
Rule for the call: 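Knock-downs counted as hits when calcium entry dropped relative to STIM1 positive and Rho1 negative controls present on each plate; roughly 1500 genes called, with reductions of differing size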
Calls: active = called as lowering calcium entry; inactive = not called
The deposit covers about 20,000 reagents; below is a random part of those with a known target gene and a result. In the full data, about 2,100 (10%) were called active. 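Raw plate signals without normalisation; calls rest on control-based scores that were not deposited; replicate 2 separates called from uncalled poorly.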 The numbers tell different reagents against one gene apart. Names joined by + are all predicted targets of the reagent. No sequences are given here. The record does not give: the amount of reagent, the time to read-out.

| gene knocked down | reagent no. | calcium signal, replicate 1 | calcium signal, replicate 2 | retest calcium signal, replicate 1 | retest calcium signal, replicate 2 | Call |
| --- | --- | --- | --- | --- | --- | --- |
| Mst85C | 1 | 83.9 | 97.2 | – | – | inactive |
| CG32772 | 1 | 252 | 85.2 | 9239 | 132 | inactive |
| CG32772 | 2 | 88.1 | 106 | – | – | inactive |
| CG32772 | 3 | 106 | 209 | – | – | inactive |
| CG34168 | 1 | 89 | 98.1 | – | – | inactive |
| CG18266 | 1 | 105 | 161 | – | – | inactive |
| Atg18a (Autophagy-related 18a) | 1 | 121 | 84.6 | – | – | inactive |
| Or85a (Odorant receptor 85a) | 1 | 124 | 107 | – | – | inactive |
| BomT3 (Bomanin Tailed 3) | 1 | 169 | 160 | – | – | inactive |
| CG13631 | 1 | 148 | 218 | – | – | inactive |
| CG13631 | 2 | 137 | 105 | – | – | inactive |
| CG30270 | 1 | 106 | 174 | – | – | inactive |
| Ugt37A1 (UDP-glycosyltransferase family 37 member A1) | 1 | 227 | 90 | – | – | inactive |
| CG8197 | 1 | 110 | 115 | – | – | inactive |
| CG14419 | 1 | 98 | 127 | – | – | inactive |
| CG3942 | 1 | 131 | 101 | – | – | inactive |
| CG18284 | 1 | 64.5 | 115 | – | – | active |
| CG18284 | 2 | 94.3 | 8903 | – | – | inactive |
| Nab2 (Nuclear polyadenosine RNA-binding 2) | 1 | 160 | 255 | – | – | inactive |
| kek3 (kekkon 3) | 1 | 158 | 110 | 114 | 122 | inactive |
| kek3 (kekkon 3) | 2 | 123 | 105 | – | – | inactive |
| kmg (kumgang) | 1 | 67.4 | 88.8 | – | – | active |
| CG14676 | 1 | 141 | 218 | – | – | inactive |
| CG13739 | 1 | 139 | 153 | – | – | inactive |
| CG13739 | 2 | 96 | 176 | – | – | inactive |
| CG12594 | 1 | 162 | 104 | – | – | inactive |
| CG4956 | 1 | 212 | 119 | – | – | inactive |
| zpg (zero population growth) | 1 | 92.7 | 67.4 | – | – | inactive |
| sad (shadow) | 1 | 183 | 92.9 | – | – | inactive |
| Cdc23 (Cell division cycle 23) | 1 | 109 | 90.2 | – | – | inactive |
| Gpat4 (Glycerol-3-phosphate acyltransferase 4) | 1 | 156 | 96.3 | – | – | inactive |
| CG17078 | 1 | 162 | 122 | – | – | inactive |
| CG16890 | 1 | 76.6 | 108 | – | – | inactive |
| osa | 1 | 162 | 213 | – | – | inactive |
| sl (small wing) | 1 | 156 | 113 | – | – | inactive |
| sl (small wing) | 2 | 142 | 125 | – | – | inactive |
| Pngl (PNGase-like) | 1 | 135 | 188 | – | – | inactive |
| Acbp2 (Acyl-CoA binding protein 2) | 1 | 73.3 | 65.1 | – | – | inactive |
| Cow | 1 | 103 | 94.2 | – | – | inactive |
| Cow | 2 | 207 | 163 | – | – | inactive |
| Sgs5bis | 1 | 124 | 141 | – | – | inactive |
| CG42540 | 1 | 69.5 | 151 | – | – | active |
| CG42540 | 2 | 86.2 | 81.6 | – | – | inactive |
| CG42540 | 3 | 89.4 | 68.2 | – | – | inactive |
| CG42540 | 4 | 103 | 121 | – | – | inactive |
| mthl1 (methuselah-like 1) | 1 | 93.1 | 116 | – | – | inactive |
| Gr10a (Gustatory receptor 10a) | 1 | 78 | 104 | – | – | inactive |
| Sln (Silnoon) | 1 | 105 | 162 | – | – | inactive |
| Muc96D (Mucin 96D) | 1 | 7158 | 173 | – | – | inactive |
| Muc96D (Mucin 96D) | 2 | 159 | 95.1 | – | – | inactive |
| Muc96D (Mucin 96D) | 3 | 122 | 155 | – | – | inactive |
| 5-HT7 (5-hydroxytryptamine (serotonin) receptor 7) | 1 | 121 | 141 | – | – | inactive |
| CG8067 | 1 | 162 | 205 | – | – | inactive |
| alpha4GT2 (alpha1,4-galactosyltransferase 2) | 1 | 274 | 135 | – | – | inactive |
| hry (hairy) | 1 | 146 | 101 | – | – | inactive |
| hry (hairy) | 2 | 73.3 | 121 | – | – | inactive |
| CG13601 | 1 | 210 | 296 | – | – | inactive |
| CG12540 | 1 | 113 | 117 | – | – | inactive |
| Gr47b (Gustatory receptor 47b) | 1 | 112 | 162 | – | – | inactive |
| cass (cassowary) | 1 | 88.9 | 105 | – | – | inactive |
| Mlc2 (Myosin light chain 2) | 1 | 109 | 189 | – | – | inactive |
| ppk28 (pickpocket 28) | 1 | 103 | 107 | – | – | inactive |
| CG31823 | 1 | 135 | 138 | – | – | inactive |
| CG31710 | 1 | 149 | 106 | 5283 | 129 | inactive |
| CG31710 | 2 | 104 | 114 | – | – | inactive |
| Nagk (N-acetylglucosamine kinase) | 1 | 81.5 | 169 | – | – | inactive |
| CG11085 | 1 | 90.2 | 116 | – | – | inactive |
| CG11085 | 2 | 131 | 108 | – | – | inactive |
| sgg (shaggy) | 1 | 89.3 | 141 | – | – | inactive |
| RpL32 (Ribosomal protein L32) | 1 | 4973 | 103 | 97.2 | 99 | active |
| CG14325 | 1 | 142 | 82.2 | – | – | inactive |
| CG14518 | 1 | 140 | 150 | – | – | inactive |
| CG9098 | 1 | 144 | 221 | 71.3 | 123 | inactive |
| CG9098 | 2 | 102 | 157 | – | – | inactive |
| thetaTry (thetaTrypsin) | 1 | 132 | 165 | – | – | inactive |
| Rab4 | 1 | 131 | 91.8 | – | – | inactive |
| CG12546 + CG14452 | 1 | 78 | 113 | – | – | inactive |
| PheRS-m (Phenylalanyl-tRNA synthetase, mitochondrial) | 1 | 198 | 170 | – | – | inactive |
| CG7546 | 1 | 82.2 | 147 | 125 | 147 | inactive |
| CG7546 | 2 | 117 | 135 | – | – | inactive |
| eIF3d2 (eukaryotic translation initiation factor 3 subunit d2) | 1 | 92.3 | 104 | – | – | inactive |
| CG33270 | 1 | 103 | 89 | – | – | inactive |
| CG30284 | 1 | 89.6 | 217 | – | – | inactive |

Limited to “calcium signal, replicate 1”, for 7 of the entries above:
CG14419: 98
CG3942: 131
CG18284 #1: 64.5
CG18284 #2: 94.3
Nab2 (Nuclear polyadenosine RNA-binding 2): 160
kek3 (kekkon 3) #1: 158
kek3 (kekkon 3) #2: 123
